The target of test [1] is HA-NRX1βS4(−), expressed in cultured rat hippocampal neurons. Put plainly: protein-clustering assay with protein-coated beads on neurons; cis pair co-expressed in the same axon; co-accumulation at NLGN1-Fc-coated beads, surface immunostaining.
Test [2] deals with HA-NRX1βS4(−)ΔHRD, expressed in cultured rat hippocampal neurons. The description is as above.

Results are given in words; binding and its absence hold for the method and conditions named. For part of these data: Binding calls can cover weak binding; strength is not graded here. Sequences can lack the tags named with a protein.

From PMC9880023 come the findings set out here.

B1: untagged full-length SorCS1b, expressed in cultured rat hippocampal neurons (SorCS1b-IRES-GFP) (receptor, UniProt Q9JLC4 34-1167)
chain: SLSCCPPQHPSSTPRRTLTPRGFPHPGPLGRAPATPPPLFMRPLFAVAPGDRALFLERAGGSRVSVATAARSGRRRRSGTEPEKIEPGEGASRSRRDMLKDGGQQGLGTGARDPGKATRFRMEELRLTSTTFALTGDSAHNQAMVHWSGHNSSVILILTKLYDYNLGSITESSLWRSTDYGTTYEKLNDKVGLKTILSYLYVCPTNKCKIMLLTDPEIESSLLISSDEGATYQKYRLNFYLQSLLFHPKQEDWILAYSQDQKLYSSAEFGRRWQLIQESVVPNRFYWSVMGSSKEPDLVHLEARTVDGHSIYLTCRMQNCTEANRNKPFPGYIDPDSLIVQDDYVFVQLTSGGRPHYYVSYRRSPFAQMKLPKYALPKDMHVISTDENQVFAAVQEWNQNDTYNLYISDTRGVYFTLALENVRSSRGPEGNVMIDLYEVAGIKGMFLANKKIDNQVKTFITYNKGRDWRLLQAPDADLRGDPVHCLLPYCSLHLHLKVSENPYTSGIIASRDTAPSIIVASGNIGSELSDSDISMFVSSDAGNTWRQIFEEEHSILYLDQGGVLVAMKHTSLPIRHLWLSFDEGRSWSKYSFTSIPLFVDGVLGEPGEETLIMTVFGHFSHRSEWQLVKVDYKSIFDRRCAEEDYRPWQLHSQGEACIMGAKRIYKKRKSERKCMQKYAGAMESEPCVCTEADFDCDYGYERHSNGQCLPAFWFNPSSLSKDCSLGQSYLNSAGYRKVVSNNCTDGVREQYTAKPQKCPGKAPRGLRIVTADGKLTAEQGHNVTLMVQLEEGDVQRTLIQVDFGDGIAVSYVNLSSMEDGIKHVYQNVGIFRVTVQVDNSLGSDSAVLYLHVTCPLEHVHLSLPFVTTKNKEVNATAVLWPSQVGTLTYVWWYGNNTEPLITLEGSISFKFTSEGMNTITVQVSAGNAILQDTKTIAVYEEFRSLRLAFSPNLDDYNPDIPEWRRDISRVIKKSLVEATGIPSQHILVAVLPGLPTAAELFVLPYQDGTRENKRSPEDLEQISEVLIHKLNQNLVHFELKPGVQVLVHAAHLTAAPLVDLTPTHSGSAMLMLLSVVFVGLAVFVIYKFKRRVALPSPPSPSAQPGDSSLRLQRPRPATPPSSPKRGSAGAQFAI
With B1, the binding entry in test [1] is given as “binds”; in test [2] it was “no binding”.

B2: untagged SorCS1bΔVPS10, expressed in cultured rat hippocampal neurons (SorCS1bΔVPS10-IRES-GFP) (receptor, UniProt Q9JLC4)
chain: SLSCCPPQHPSSTPRRTLTPRGFPHPGPLGRAPATPPPLFMRPLFAVAPGDRALFLERAGGSRVSVATAARSGRRRRSGTEPEKIEPGEGASRSRRDMLKDGGQQGLGTGARDPGKATRFRMEELRLTSTTFALTGDSAHNQAMVHWSGHNSSVILILTKLYRGLRIVTADGKLTAEQGHNVTLMVQLEEGDVQRTLIQVDFGDGIAVSYVNLSSMEDGIKHVYQNVGIFRVTVQVDNSLGSDSAVLYLHVTCPLEHVHLSLPFVTTKNKEVNATAVLWPSQVGTLTYVWWYGNNTEPLITLEGSISFKFTSEGMNTITVQVSAGNAILQDTKTIAVYEEFRSLRLAFSPNLDDYNPDIPEWRRDISRVIKKSLVEATGIPSQHILVAVLPGLPTAAELFVLPYQDGTRENKRSPEDLEQISEVLIHKLNQNLVHFELKPGVQVLVHAAHLTAAPLVDLTPTHSGSAMLMLLSVVFVGLAVFVIYKFKRRVALPSPPSPSAQPGDSSLRLQRPRPATPPSSPKRGSAGAQFAI
Turning to B2, the binding entry in test [1] is “no binding”.
